Like-named read-outs stand apart in the source and are kept apart here. No constants are given. Whether binding was seen depends on the method and setting. Binding seen in cells or lysates may run through a third protein. Tags and fused reporters may be left off the sequences shown.
T1: H14-ZZ-NEDD8–tagged Ubc9 (yeast (S. cerevisiae)) (UniProt P50623)
T1 sequence: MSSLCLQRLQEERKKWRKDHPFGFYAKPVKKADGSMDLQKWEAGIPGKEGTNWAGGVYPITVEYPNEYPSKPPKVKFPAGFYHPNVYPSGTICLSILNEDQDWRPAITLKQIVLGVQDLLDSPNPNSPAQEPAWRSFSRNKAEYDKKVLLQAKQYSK

Sequences of proteins named here, by UniProt entry; tags and fusion partners are left off. A change or cut given only in a name is not applied to a line headed by its entry.
UniProt Q06142: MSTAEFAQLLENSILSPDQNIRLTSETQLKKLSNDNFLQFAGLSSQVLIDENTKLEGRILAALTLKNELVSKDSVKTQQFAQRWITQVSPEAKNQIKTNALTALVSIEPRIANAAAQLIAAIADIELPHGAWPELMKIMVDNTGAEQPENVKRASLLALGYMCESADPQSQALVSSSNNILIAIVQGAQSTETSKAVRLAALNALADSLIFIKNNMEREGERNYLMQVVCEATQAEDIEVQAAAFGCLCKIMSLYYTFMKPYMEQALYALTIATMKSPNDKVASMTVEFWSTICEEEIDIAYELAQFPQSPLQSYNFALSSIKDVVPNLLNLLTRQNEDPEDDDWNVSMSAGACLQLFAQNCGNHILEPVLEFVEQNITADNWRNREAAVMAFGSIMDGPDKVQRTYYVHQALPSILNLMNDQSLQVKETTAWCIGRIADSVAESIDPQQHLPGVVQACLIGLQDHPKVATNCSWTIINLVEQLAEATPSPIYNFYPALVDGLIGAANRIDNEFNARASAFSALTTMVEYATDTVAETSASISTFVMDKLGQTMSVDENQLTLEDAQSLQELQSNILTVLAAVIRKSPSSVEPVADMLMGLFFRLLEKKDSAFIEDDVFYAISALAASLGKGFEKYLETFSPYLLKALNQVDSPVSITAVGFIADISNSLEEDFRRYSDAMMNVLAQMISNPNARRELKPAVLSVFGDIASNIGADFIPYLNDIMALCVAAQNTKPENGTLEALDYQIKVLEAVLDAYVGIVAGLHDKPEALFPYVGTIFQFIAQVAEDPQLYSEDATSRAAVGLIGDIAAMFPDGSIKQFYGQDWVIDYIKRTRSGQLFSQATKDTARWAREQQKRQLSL
UniProt Q02821: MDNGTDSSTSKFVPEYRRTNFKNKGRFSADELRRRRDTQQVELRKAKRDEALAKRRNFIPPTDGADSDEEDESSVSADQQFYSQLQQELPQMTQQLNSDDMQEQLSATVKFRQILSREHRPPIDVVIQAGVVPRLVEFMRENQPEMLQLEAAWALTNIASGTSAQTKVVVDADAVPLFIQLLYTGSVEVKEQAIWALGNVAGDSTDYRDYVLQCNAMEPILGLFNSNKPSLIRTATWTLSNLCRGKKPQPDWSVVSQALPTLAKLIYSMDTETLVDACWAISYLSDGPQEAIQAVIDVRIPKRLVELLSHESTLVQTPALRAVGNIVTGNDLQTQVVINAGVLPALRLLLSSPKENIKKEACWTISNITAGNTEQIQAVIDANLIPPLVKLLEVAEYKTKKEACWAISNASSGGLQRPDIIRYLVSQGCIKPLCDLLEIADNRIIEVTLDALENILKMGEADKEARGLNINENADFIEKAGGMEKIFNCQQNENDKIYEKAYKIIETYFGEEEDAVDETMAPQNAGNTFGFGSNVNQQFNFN
UniProt P53067: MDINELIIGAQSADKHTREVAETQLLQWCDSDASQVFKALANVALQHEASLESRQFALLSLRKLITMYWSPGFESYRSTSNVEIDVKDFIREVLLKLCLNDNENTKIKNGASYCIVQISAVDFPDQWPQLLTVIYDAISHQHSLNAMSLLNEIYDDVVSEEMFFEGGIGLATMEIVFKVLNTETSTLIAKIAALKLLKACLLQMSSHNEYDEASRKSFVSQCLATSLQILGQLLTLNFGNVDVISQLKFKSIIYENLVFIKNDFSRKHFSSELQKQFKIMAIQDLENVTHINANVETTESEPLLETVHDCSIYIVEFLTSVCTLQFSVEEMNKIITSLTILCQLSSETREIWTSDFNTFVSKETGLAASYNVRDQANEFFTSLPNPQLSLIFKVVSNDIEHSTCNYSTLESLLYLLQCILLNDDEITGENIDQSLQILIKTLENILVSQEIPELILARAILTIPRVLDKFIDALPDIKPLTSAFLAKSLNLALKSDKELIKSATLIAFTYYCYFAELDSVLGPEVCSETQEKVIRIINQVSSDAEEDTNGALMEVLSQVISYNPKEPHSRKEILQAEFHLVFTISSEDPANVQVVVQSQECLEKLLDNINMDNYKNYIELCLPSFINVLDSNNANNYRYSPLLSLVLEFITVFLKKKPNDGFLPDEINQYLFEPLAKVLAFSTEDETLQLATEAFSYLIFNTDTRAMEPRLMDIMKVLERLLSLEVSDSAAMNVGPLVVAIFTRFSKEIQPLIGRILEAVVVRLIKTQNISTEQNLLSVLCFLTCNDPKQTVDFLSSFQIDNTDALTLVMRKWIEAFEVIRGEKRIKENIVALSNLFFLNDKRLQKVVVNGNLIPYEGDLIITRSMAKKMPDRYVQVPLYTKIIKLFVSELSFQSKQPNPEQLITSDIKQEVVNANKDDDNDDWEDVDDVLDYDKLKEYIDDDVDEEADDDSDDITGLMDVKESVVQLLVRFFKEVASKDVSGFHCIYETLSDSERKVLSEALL


Tests used:
[1] = target: T1, H14-ZZ-NEDD8–tagged Ubc9 (yeast (S. cerevisiae)); assay: pull-down; H14-ZZ-NEDD8-Ubc9 added to E. coli lysates each containing 3 µM of a different eGFP-tagged yeast NTR; anti-ZZ/ED affibody matrix, elution by tag cleavage; SDS-PAGE/Coomassie; only the target purified
[2] = target: T1, H14-ZZ-NEDD8–tagged Ubc9 (yeast (S. cerevisiae)); assay: as above; remark: listed apart in the source

binding [1] | binding [2] | Molecule
no binding (tested: 3 µM) | – | importin β (yeast; eGFP-tagged, E. coli lysate) (from UniProt Q06142 1-861)
no binding (tested: 3 µM) | – | importin α–β complex (yeast; E. coli lysate) (from UniProt Q02821 1-542; Q06142 1-861)
– | no binding (tested: 3 µM) | Yrb4 (eGFP-tagged, E. coli lysate) (protein, UniProt P40069 1-1113) MDQQFLSQLEQTLHAITSGVGLKEATKTLQTQFYTQPTTLPALIHILQNGSDDSLKQLAGVEARKLVSKHWNAIDESTRASIKTSLLQTAFSEPKENVRHSNARVIASIGTEELDGNKWPDLVPNLIQTASGEDVQTRQTAIFILFSLLEDFTSSLSGHIDDFLALFSQTINDPSSLEIRSLSAQALNHVSALIEEQETINPVQAQKFAASIPSVVNVLDAVIKADDTMNAKLIFNCLNDFLLLDSQLTGNFIVDLIKLSLQIAVNSEIDEDVRVFALQFIISSLSYRKSKVSQSKLGPEITVAALKVACEEIDVDDELNNEDETGENEENTPSSSAIRLLAFASSELPPSQVASVIVEHIPAMLQSANVFERRAILLAISVAVTGSPDYILSQFDKIIPATINGLKDTEPIVKLAALKCIHQLTTDLQDEVAKFHEEYLPLIIDIIDSAKNIVIYNYATVALDGLLEFIAYDAIAKYLDPLMNKLFYMLESNESSKLRCAVVSAIGSAAFAAGSAFIPYFKTSVHYLEKFIQNCSQIEGMSEDDIELRANTFENISTMARAVRSDAFAEFAEPLVNSAYEAIKTDSARLRESGYAFIANLAKVYGENFAPFLKTILPEIFKTLELDEYQFNFDGDAEDLAAFADSANEEELQNKFTVNTGISYEKEVASAALSELALGTKEHFLPYVEQSLKVLNEQVDESYGLRETALNTIWNVVKSVLLASKVEPESYPKGIPASSYVNADVLAVIQAARETSMGNLSDEFETSMVITVMEDFANMIKQFGAIIIMDNGDSSMLEALCMQVLSVLKGTHTCQTIDIEEDVPRDEELDASETEATLQDVALEVLVSLSQALAGDFAKVFDNFRPVVFGLFQSKSKNKRSSAVGAASELALGMKEQNPFVHEMLEALVIRLTSDKSLEVRGNAAYGVGLLCEYASMDISAVYEPVLKALYELLSAADQKALAAEDDEATREIIDRAYANASGCVARMALKNSALVPLEQTVPALLAHLPLNTGFEEYNPIFELIMKLYQENSPVITNETPRIIEIFSAVFTKENDRIKLEKESTLGREENMERLKQFQTEEMKHKVIELLKYLNTTYNGIVAQNPVLAAVIA
– | no binding (tested: 3 µM) | Smx1 (eGFP-tagged, E. coli lysate) (protein, UniProt Q04175 1-944) MVQEQAILSCIEQTMVADAKIIKEAEQQLFEFQKQPGFTSFLLNIVSDDNFALNVRLSSAIYLKNKIHRSWDTKREDGIKADEKLSIKERLIETLVKNCENNHIRPILTETINGILVGQEDWDLAPIIKNLLSSGDASYIYPGLLLLFQLCKAHRWDMVGSRDYIDSVIEELFPIVEGIASNIGSQTDYRSNEILYLILKSFKYACLNNLPQYFSQPERIMSWVQLHLYLCSKPLPVEVMELDPADRSLDKRVKVNKWGFGNLNRFLQRYNKITKAITKEFIDYIFNTIVPIILREFFKDIEAWGNNSLWLSDSSLYFLISFLEKCVTIDQLYPLIEPHLQIIFENVIFPCLCANEQSIELLEDDQEEYTRRYFDINREGSTPDAASADFIFLIGSKRPEKLNNILPFINDIFTRFDANSSDINMAFKEEGALRTLSNLFSFIDEPSVLENIFGHFIVPLLSQDKYMFLVARSLETIALYSEEFKDMNILSQLFELTYTNFLNSNVLPVQIEAADAIKCLIVSNPQIHPAVSAHVPGMMEKLLKLSKIFEIDILSEVMEALVERFSDELSPFAKDLASNLVEQFLRIAQALVENPSETYSASDQEQEIQASGLLQTMTTMVMSMNKVPLIESLAPVVKFVVLHAQISFITEAVDLLDALTISSHLLYNQIAPPIWELLHDILDSFQTYAMDYFEAYSIFFETIVMTGFPQDQTYVQPLLEILSAKLESEVDYDIEHVMQILMYFALSMRDIPLFSKAIKVSTNDELGLDSKCIVKLGLANLFAKPIETLQIMENEGFTINFFTNWFNEKFYSVFAIKLQVLVILTLLKMPEVPNSVSPLLNNLTNKLVELTLSLPKAIRNRDAVTEGKSLEGDLTPEEEEEYFIECDDDMKETVLDQINVFQEVHTFFKNLQNEDAGKYEKIINYLDESKRDSLQVILEFVSQH

Continued, molecule first:

Molecule | binding [1] | binding [2]
Kap114 (eGFP-tagged, E. coli lysate) (from UniProt P53067 1-1004) | no binding (tested: 3 µM) | –
Msn5 (eGFP-tagged, E. coli lysate) (protein, UniProt P52918 1-1224) MDSTGASQIVSALDVIYSPKSNNSQRQEAQKFLDEVKLCSESPFWGYEIALQNPTNSILKYFGLGLLDHAVKKNWNDYDEGKRVALRKWVMELNFGVQDYDTRYIKEKLATLWVEVAKRTWGEALKQTNPTEEQLLTSWVDMDNNLFELWNINQSSRELALIIFRILFEDVFLLDDLIVLKRMTVIQPLCVMIVCPIEVFAIKYKFSDKWTKFKANEEGWFSVWIPELNNALQQNNSEYIIRLLETLKTCLNWPLTEVIVRNDVLSSLLTCLSSNIPRAQSMALDSIHILLTRPYSNESHYQMTIDRVFDNMDLLDSVYESLLFDPTDDIDETKYPIIKKFVDMISCLYVCVPKIKETNGQIQKYFKLVLKTTYNPSLIVSGLTLDLWCTCLRNDEYLPKLEKYVIPDLLQFAADALVYYEQIDGHISKKFAEIDFQSKSEFQTFCSTYRKRIRDIIRLISCVELDLTYDWLNNRLNNYFSSPFGQQVLSSTFLDHKLEPYLGALSQYMIVECFINGCIRWKIWYPTGDDYDEKLDSILQKLEILSNQLIALNLREPLLLKKQIQNFALFLTMLKDNVLFTLLEKIITSATMDYPEINLEERGAESDAVRDLRYACGIELNRMALLMPESLKKIYPDLESVIARIMPNLSYHEKISFKSFLLIIVLKSSLDMKEERFAAIVDPELLAWSDKTTVVGLSDLHWFMERLGIVQIAEYFQRRDIDENSDLLSIPIDDEGKELKSELTKRWQSLFPVRATRMFIHYSMQSIKTDEEFKMLQDLWRPRIVPILPYITRLLYQLQSYHDPDNWKGLPTVVQSFVKYSTIERFWEAGASNKSKDEFIDEHMKAMQTLRDFADSVGHIIRYTREYTLLVLSAISSLGSVFYLLDESPDLLLNSIAIFKPGSNEISPGVSTHGWKHIMNIAIRPILKGCPKDCLGKFMPAFLPKLFEILDLLLCQKWSSHMNDMDMNPVPTDDDQMTEEILEENLLRQLTTVVVRIVIDCVGQGNANPNSAKSRLNNHQMEMRKIIFNDLNTLAPFLKLLNHLISFKDTKCSFNSILVMKCCLTSVLNQNNTVDEYFTFEVMKNLLLNVLCNSAFKDSFHEALYAFTVIFLTLCKEYPSARAFLFEISNGYNIDELYRNLRSVDEYKTQRALMIDFIDWVKSTSGKEDGNVDHAGDERKRQEKREAILKKANERLIKKNKENGDMLDDPNIEDGAVGNLFDDN | – | no binding (tested: 3 µM)
Pse1 (eGFP-tagged, E. coli lysate) (protein, UniProt P32337 1-1089) MSALPEEVNRTLLQIVQAFASPDNQIRSVAEKALSEEWITENNIEYLLTFLAEQAAFSQDTTVAALSAVLFRKLALKAPPSSKLMIMSKNITHIRKEVLAQIRSSLLKGFLSERADSIRHKLSDAIAECVQDDLPAWPELLQALIESLKSGNPNFRESSFRILTTVPYLITAVDINSILPIFQSGFTDASDNVKIAAVTAFVGYFKQLPKSEWSKLGILLPSLLNSLPRFLDDGKDDALASVFESLIELVELAPKLFKDMFDQIIQFTDMVIKNKDLEPPARTTALELLTVFSENAPQMCKSNQNYGQTLVMVTLIMMTEVSIDDDDAAEWIESDDTDDEEEVTYDHARQALDRVALKLGGEYLAAPLFQYLQQMITSTEWRERFAAMMALSSAAEGCADVLIGEIPKILDMVIPLINDPHPRVQYGCCNVLGQISTDFSPFIQRTAHDRILPALISKLTSECTSRVQTHAAAALVNFSEFASKDILEPYLDSLLTNLLVLLQSNKLYVQEQALTTIAFIAEAAKNKFIKYYDTLMPLLLNVLKVNNKDNSVLKGKCMECATLIGFAVGKEKFHEHSQELISILVALQNSDIDEDDALRSYLEQSWSRICRILGDDFVPLLPIVIPPLLITAKATQDVGLIEEEEAANFQQYPDWDVVQVQGKHIAIHTSVLDDKVSAMELLQSYATLLRGQFAVYVKEVMEEIALPSLDFYLHDGVRAAGATLIPILLSCLLAATGTQNEELVLLWHKASSKLIGGLMSEPMPEITQVYHNSLVNGIKVMGDNCLSEDQLAAFTKGVSANLTDTYERMQDRHGDGDEYNENIDEEEDFTDEDLLDEINKSIAAVLKTTNGHYLKNLENIWPMINTFLLDNEPILVIFALVVIGDLIQYGGEQTASMKNAFIPKVTECLISPDARIRQAASYIIGVCAQYAPSTYADVCIPTLDTLVQIVDFPGSKLEENRSSTENASAAIAKILYAYNSNIPNVDTYTANWFKTLPTITDKEAASFNYQFLSQLIENNSPIVCAQSNISAVVDSVIQALNERSLTEREGQTVISSVKKLLGFLPSSDAMAIFNRYPADIMEKVHKWFA | – | no binding (tested: 3 µM)
Nmd5 (eGFP-tagged, E. coli lysate) (protein, UniProt P46970 1-1048) MDITELLQCFACTLDHNAAVRTNAETHLKNASKVPGFLGACLDIIAADEVPENIKLSASLYFKNKITYGWSAGARQGSNELLDSHVDPDEKPVVKDMLIKTMVSVSKTSPRCIRVLKSALTVIISEDYPSKKWGNLLPNSLELLANEDITVTYVGLLCLAEIFRTYRWKNNDERQDLEELILNYFPALLNYGANVLFQDGKYMNNEQIGELVKLIIKIYKFVSYHDLPFTLQRSESFTPWACFFVSIIQQPLPQEVLAISDIEVRSKNPWVKCKKWALANLYRLFQRYASTSLTRKFQYDEFKQMYCEEFLTQFLQVVFDQIEKWGTGQLWLSDECLYYILNFVEQCVVQKTTWKLVGPHYNVILQHVIFPLLKPTAETLEAFDNDPQEYINRNMDFWDVGYSPDLAALALLTTCVTKRGKTTLQPTLEFMVSTLQSAVGDYNNIMLDNALQIESCLRIFSSIIDRLITKDSPFASEMEKFILTYVLPFFKSQYGFLQSRVCDICSKLGSMDFKDPVITSTIYEGVMNCLNNSSNSLPVELTAALALQTFISDDQFNMKLSEHVVPTMQKLLSLSNDFESDVISGVMQDFVEQFAEQLQPFGVELMNTLVQQFLKLAIDLHETSNLDPDSFTNVDSIPDESDKQMAALGILSTTISILLSFENSPEILKNLEQSFYPAAEFILKNDIEDFYRECCEFVENSTFLLRDITPISWKILELIGECNRKPDSMVSYYLSDFMLALNNILIYGRNELKKNEFYTKIIFEIYQKAVTAEDNSLDDLRVVFDLSQELVLALDDSLPQQYRERLLADVVGSILTQKNELKTNVVFSVTAFNVVISNMITEPLITLQYLKQQGCLEIFFQTWITDYIPNYKRCYDIKLSVLALLKIILKLESNDYSVLNLENLVPQLGSIVTQLASRLPTALRQLANQRKEFSSSGFEEDTKWDENFLDVGDDDENDDEGDLTEKYLELIKNRADSLDFVDGYDAKETFDDLEEDPLTGSILDTVDVYKVFKESIANLQHVDSNRYQGILRHLTPADQELFMGIMNA | – | no binding (tested: 3 µM)
